Laboratory results published in article PMC11372188.
Results are given in words; binding and its absence hold for the method and conditions named. Binding seen in cells or lysates may run through a third protein. Some binding calls cover weakened binding; strength is not graded here.

Chains of the proteins cited; added tags and fusions are not shown.
UniProt P49841: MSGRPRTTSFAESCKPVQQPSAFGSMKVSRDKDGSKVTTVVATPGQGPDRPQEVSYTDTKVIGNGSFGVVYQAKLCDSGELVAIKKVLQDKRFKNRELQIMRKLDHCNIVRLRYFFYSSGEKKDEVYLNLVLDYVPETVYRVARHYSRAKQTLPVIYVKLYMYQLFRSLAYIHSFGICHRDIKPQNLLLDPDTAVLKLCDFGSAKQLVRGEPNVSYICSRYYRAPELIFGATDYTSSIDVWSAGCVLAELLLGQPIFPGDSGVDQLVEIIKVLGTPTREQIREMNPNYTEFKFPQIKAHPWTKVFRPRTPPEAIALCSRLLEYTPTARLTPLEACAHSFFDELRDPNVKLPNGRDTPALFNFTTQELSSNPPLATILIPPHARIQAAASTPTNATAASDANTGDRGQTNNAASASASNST

Target: glycogen synthase kinase 3β (GSK3β) (human (endogenous in H1975/OR and PC9/OR)) (UniProt P49841)
Assay: co-IP; endogenous proteins in lysates of H1975/OR and PC9/OR cells (IP/Western lysing solution with phosphatase and protease inhibitor cocktails); antibodies on protein A/G magnetic beads, overnight with protein extracts at 4 °C, three washes, immunoblotting; IgG as negative control

For “proviral integration site for Moloney murine leukemia virus 1 (PIM1) (from UniProt P11309-1 1-313)”, the binding was “binds”.
